Values of other authors, collected in US20220273590A1, “COMPOUNDS FOR PREVENTION AND TREATMENT OF POST-OPERATIVE COGNITIVE DYSFUNCTION” (ABREXA PHARMACEUTICALS, INC., priority 2019, published 2022).
At least one compound was matched to its structure with a doubt left.

Conditions: Li W, et al. (2018); cited from earlier work

Compound: CN(C)c1ccc(O)c2c1C[C@H]1C[C@H]3[C@H](N(C)C)C(O)=C(C(N)=O)C(=O)[C@@]3(O)C(O)=C1C2=O [Minocycline]
- effect on POCD: exacerbated POCD
